Experimental data taken from PubChem BioAssay AID588479 (NMMLSC, 2011).
Inconclusive means that the source gave no clear call. Such entries were picked first, then a sample of the others. Activity calls are given as the source filed them.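 The calls were made as follows: active = eight-GTPase mean potency score over 50, needing half-effect dose up to 10 µM and response span 30% or more; inconclusive = no clear call, values can overlap the other calls; inactive = the rest.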

test system: RhoWT; test: inhibitors of GTP binding to eight small GTPases, SAR follow-up, biochemical, round 1 SAR, Mg buffer, multiplex flow cytometry (AID 588479); details: multiplex GST-GTPase beads, Bodipy-GTP binding, wild type; at 100 µM (top of the series)
Outline: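 Test system: Multiplexed GST-tagged GTPases (Rab7, H-Ras, Rac, Rho, Cdc42) on colour-coded beads | Compound dosing: Nine-point compound series, 1:3 steps, 10 nM to 100 µM | Timing: Beads, compound and labeled GTP incubated 40–45 min at 4 °C | Detection: Flow cytometry, green median fluorescence per bead | Measure: Normalized response, EC50 by four-parameter fit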

Compound | response, lower = inhibition | outcome
CC1(C)Cc2c(sc(NC(=S)NC(=O)c3cccc(Br)c3)c2C(=O)O)CO1 | inactive: 82.6% | –
CCOC(=O)c1c(NC(=S)Nc2ccccc2)sc2c1CC(C)(C)OC2 | – | inconclusive
CC(C)(C)OC(=O)c1c(NC(=S)NC(=O)c2ccccc2)sc2c1CCOC2 | – | inconclusive
CCOC(=O)c1c(NC(=O)NC(C)(C)C)sc2c1CCN(C)C2 | – | inconclusive
Cc1ccc(Nc2nc3sc4c(c3c(=O)o2)CCN(C)C4)cc1 | – | inconclusive
CCOC(=O)c1c(NC(=S)NC(=O)c2ccccc2)sc2ccccc12 | – | inconclusive
CCOC(=O)c1c(N)sc2ccccc12 | inactive: 96.8% | –
Cc1ccc(NC(=O)Nc2sc3c(c2C(=O)O)CCN(C)C3)cc1 | inactive: 98.8% | –
CC1(C)Cc2c(sc(NC(=S)Nc3ccccc3)c2C(=O)O)CO1 | inactive: 98.8% | –
CCOC(=O)c1c(NC(=O)Nc2ccc(C)cc2)sc2c1CCN(C)C2 | – | inconclusive
CC1(C)Cc2c(sc(NC(=O)Cc3ccccc3)c2C(=O)O)CO1 | inactive: 84.6% | –
CN1CCc2c(sc(NC(=O)Nc3ccc(F)cc3)c2C(=O)O)C1 | – | inconclusive
CN1CCc2c(sc3nc(Nc4ccc(F)cc4)oc(=O)c23)C1 | – | inconclusive
COC(=O)c1c(N)sc2c1CC(C)(C)OC2 | – | inconclusive
CCOC(=O)c1c(NC(=O)Nc2ccc(F)cc2)sc2c1CCN(C)C2 | – | inconclusive

No new results follow: entries from further up.
Compound | response, lower = inhibition | outcome
COC(=O)c1c(N)sc2c1CC(C)(C)OC2 | – | inconclusive
CCOC(=O)c1c(NC(=O)Nc2ccc(F)cc2)sc2c1CCN(C)C2 | – | inconclusive
